Source: the supplement of paper PMC10849652
The other results are listed elsewhere or left out.

Amino acid sequences for entries named in this document (tags omitted). A change or cut given only in a name is not applied to a line headed by its entry.
UniProt Q8WWM7: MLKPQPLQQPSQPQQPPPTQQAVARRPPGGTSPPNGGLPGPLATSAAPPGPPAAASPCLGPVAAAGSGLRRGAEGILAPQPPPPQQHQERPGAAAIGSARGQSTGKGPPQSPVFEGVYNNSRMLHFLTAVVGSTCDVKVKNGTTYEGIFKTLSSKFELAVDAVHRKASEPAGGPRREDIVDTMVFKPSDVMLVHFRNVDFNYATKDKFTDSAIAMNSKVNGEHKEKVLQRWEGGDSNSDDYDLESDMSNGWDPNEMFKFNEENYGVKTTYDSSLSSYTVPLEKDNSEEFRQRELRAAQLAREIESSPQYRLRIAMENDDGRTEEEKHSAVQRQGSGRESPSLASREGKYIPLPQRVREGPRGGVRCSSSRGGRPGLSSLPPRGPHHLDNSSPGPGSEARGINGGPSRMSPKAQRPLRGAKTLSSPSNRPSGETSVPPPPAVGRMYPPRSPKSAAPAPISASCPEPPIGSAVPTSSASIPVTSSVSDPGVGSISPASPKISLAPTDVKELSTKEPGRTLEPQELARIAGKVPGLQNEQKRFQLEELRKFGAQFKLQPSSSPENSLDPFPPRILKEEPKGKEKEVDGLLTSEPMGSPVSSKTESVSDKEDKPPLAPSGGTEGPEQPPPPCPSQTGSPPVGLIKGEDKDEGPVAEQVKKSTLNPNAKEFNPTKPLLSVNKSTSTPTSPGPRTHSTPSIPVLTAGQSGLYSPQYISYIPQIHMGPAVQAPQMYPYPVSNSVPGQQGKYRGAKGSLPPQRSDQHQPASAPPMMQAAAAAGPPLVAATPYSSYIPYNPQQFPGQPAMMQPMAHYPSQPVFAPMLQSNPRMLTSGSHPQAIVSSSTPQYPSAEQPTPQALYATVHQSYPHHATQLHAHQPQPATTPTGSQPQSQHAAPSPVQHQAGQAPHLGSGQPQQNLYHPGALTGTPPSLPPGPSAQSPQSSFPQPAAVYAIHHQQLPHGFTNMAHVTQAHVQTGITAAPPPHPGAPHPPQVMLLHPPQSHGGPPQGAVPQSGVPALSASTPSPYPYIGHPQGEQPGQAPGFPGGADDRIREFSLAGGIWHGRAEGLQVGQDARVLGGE
UniProt Q9H3K6: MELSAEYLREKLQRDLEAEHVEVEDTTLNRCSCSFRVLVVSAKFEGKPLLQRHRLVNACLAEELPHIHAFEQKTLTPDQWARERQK
UniProt Q9NXR7, whole entry, looked up: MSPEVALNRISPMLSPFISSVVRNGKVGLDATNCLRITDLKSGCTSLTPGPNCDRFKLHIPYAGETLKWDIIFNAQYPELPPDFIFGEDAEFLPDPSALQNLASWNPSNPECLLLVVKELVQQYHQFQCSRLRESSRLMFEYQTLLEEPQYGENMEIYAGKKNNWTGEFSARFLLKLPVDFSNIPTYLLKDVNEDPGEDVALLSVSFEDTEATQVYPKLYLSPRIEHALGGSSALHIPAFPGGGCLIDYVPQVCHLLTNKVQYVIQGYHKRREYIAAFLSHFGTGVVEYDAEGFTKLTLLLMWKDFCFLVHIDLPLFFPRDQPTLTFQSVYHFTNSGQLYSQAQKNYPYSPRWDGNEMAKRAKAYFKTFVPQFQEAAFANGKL
UniProt Q8TDN6: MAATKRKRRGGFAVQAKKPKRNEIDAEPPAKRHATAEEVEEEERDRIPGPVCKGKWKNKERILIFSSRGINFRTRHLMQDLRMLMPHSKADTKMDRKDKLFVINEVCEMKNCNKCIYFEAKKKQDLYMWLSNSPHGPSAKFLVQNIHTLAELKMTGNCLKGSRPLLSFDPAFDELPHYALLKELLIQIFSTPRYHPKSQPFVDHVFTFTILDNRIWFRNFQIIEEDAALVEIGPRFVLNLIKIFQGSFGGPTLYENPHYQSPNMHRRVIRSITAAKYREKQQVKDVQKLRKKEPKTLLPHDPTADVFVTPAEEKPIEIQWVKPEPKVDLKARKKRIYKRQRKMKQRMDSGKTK
UniProt O95999: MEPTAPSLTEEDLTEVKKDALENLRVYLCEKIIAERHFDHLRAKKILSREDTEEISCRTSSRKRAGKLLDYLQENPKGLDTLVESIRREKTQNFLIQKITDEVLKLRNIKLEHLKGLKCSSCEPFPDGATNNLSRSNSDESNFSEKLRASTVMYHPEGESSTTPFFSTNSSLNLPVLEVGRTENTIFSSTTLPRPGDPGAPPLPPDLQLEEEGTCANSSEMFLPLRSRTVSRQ
UniProt Q5VW32: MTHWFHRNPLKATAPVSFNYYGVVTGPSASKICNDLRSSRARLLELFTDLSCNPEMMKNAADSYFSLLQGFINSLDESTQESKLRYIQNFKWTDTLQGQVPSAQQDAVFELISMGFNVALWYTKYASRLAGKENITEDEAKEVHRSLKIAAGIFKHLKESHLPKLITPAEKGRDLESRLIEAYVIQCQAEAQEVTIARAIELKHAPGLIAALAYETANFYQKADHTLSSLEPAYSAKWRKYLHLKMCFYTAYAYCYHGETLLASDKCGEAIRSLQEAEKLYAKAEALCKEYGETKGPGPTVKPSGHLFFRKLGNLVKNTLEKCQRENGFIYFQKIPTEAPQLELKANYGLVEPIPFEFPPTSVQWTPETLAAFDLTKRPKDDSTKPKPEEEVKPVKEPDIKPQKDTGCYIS
UniProt Q9BXH1: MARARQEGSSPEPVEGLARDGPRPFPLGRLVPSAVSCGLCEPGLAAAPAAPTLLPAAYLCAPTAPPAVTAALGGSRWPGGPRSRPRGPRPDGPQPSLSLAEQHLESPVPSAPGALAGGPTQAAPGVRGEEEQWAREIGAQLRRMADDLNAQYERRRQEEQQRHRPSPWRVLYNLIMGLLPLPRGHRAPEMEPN
UniProt Q9HB09: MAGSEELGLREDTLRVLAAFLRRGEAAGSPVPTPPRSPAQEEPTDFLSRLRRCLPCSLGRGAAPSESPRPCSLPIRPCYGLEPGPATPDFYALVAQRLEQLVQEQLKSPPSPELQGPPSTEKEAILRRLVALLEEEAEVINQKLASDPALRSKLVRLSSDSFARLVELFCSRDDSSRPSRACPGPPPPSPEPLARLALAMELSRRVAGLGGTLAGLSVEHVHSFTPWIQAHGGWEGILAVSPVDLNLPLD
UniProt O15382: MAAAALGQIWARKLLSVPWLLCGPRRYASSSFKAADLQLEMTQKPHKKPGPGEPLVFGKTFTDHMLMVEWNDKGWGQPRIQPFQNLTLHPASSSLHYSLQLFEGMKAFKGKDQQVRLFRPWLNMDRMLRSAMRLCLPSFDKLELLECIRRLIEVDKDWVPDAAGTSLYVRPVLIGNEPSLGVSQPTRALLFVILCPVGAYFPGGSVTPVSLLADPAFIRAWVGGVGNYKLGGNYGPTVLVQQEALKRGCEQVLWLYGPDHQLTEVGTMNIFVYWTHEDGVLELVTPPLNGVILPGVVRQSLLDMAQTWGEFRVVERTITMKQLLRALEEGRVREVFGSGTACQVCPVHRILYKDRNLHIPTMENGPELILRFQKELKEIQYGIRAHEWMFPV
UniProt P21953: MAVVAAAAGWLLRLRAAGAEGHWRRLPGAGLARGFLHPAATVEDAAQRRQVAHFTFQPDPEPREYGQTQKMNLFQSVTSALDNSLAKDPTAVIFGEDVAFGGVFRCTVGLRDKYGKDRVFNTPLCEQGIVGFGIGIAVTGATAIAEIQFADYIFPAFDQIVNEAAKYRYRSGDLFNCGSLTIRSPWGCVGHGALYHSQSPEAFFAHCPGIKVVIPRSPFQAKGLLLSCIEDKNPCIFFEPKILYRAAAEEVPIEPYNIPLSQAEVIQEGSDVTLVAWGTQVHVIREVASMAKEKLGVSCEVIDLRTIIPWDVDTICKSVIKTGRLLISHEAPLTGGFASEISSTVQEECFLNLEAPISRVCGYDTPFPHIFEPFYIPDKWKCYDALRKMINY
UniProt O75934: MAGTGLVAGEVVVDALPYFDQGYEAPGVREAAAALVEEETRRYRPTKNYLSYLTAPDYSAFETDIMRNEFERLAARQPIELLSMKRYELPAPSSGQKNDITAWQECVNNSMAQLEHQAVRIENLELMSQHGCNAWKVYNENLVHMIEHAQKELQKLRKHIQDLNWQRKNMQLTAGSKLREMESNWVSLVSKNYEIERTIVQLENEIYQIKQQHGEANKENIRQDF
UniProt Q14137: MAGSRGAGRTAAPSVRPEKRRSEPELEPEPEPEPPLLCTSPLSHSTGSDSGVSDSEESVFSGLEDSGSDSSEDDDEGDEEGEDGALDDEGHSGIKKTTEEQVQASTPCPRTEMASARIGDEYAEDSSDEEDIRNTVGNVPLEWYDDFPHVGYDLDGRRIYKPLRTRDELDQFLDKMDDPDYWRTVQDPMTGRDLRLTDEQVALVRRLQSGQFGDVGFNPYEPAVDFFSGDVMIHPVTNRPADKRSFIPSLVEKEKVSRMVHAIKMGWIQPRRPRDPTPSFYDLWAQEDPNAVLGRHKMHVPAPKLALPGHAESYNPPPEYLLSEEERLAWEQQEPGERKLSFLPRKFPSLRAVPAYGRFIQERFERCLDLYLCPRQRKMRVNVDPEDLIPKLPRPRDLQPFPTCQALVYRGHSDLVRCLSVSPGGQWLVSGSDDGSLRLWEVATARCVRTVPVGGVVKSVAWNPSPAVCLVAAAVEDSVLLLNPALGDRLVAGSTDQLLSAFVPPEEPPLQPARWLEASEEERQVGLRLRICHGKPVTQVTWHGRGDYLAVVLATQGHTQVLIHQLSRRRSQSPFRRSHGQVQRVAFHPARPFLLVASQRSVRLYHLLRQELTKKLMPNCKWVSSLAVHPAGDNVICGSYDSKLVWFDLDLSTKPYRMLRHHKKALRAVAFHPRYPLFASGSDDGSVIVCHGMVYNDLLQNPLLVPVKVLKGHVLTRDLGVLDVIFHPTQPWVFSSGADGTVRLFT
UniProt Q16611: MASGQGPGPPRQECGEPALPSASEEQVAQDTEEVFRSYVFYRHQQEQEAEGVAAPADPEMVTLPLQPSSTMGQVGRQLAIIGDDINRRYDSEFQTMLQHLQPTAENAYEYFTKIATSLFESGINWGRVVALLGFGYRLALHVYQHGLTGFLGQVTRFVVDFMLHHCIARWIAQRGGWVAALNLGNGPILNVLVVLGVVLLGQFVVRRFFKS
UniProt P55957: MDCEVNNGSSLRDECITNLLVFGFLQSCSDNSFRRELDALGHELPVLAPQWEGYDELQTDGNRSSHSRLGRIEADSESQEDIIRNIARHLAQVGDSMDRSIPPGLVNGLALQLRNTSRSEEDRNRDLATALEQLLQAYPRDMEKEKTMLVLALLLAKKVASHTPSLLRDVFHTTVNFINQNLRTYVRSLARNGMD
UniProt O95816: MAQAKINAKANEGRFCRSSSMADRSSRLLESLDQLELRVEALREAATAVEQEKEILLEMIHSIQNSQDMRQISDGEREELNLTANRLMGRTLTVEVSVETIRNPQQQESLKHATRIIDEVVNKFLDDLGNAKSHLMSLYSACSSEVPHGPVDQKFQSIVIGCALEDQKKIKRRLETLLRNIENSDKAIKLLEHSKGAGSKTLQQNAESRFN
UniProt Q9UHQ4: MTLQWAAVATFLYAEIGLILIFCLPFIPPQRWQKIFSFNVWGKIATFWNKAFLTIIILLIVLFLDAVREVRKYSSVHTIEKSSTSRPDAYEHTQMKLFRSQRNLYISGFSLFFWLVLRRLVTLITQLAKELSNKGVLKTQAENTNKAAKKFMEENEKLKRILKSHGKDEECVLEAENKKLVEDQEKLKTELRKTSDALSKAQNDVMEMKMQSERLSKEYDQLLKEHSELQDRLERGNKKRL
UniProt Q67FW5: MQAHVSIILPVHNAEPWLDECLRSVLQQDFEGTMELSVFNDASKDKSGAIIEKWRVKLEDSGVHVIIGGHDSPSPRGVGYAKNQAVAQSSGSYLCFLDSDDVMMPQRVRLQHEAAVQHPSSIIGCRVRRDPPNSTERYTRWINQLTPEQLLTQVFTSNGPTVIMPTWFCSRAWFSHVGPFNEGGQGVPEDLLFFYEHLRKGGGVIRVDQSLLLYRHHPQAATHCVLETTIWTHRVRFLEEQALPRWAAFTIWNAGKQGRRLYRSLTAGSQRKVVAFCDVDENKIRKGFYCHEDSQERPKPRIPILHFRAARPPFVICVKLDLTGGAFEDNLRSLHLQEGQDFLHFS

Each target was assayed with O=C(O)c1ccc2c(c1)nc(Nc1cccc(Cl)c1)c1ccncc12 [silmitasertib] (assay: log2 fold change, soluble protein after heating vs DMSO (PISA); higher = thermal stabilisation; K562 cells, 10 uM, 30 min; active = over 0.2 and 3.5 SD of the protein, either way, in both replicates (recomputed)).
Procedure, shortened: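 K562 cells (2×10^6 cells/mL) were treated with 10 μM compound for 30 min, and aliquots were heated for 3 min over 48°C-58°C. Pooled aliquots were extracted in PBS with 0.5% NP-40 at 4°C, and the supernatant after 21,000xg for 90 min was measured by TMTpro 16plex LC-MS/MS with channel sums equalised. Reported thermal stability, relative to control samples and from duplicates, is a log2 fold change.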

log2 fold change, inactive:
ATXN2L (UniProt Q8WWM7) -0.004
BOLA2 (UniProt Q9H3K6) 0.007
BABAM2 (UniProt Q9NXR7) 0.079
BRIX1 (UniProt Q8TDN6) 0.191
BCL10 (UniProt O95999) 0.025
BROX (UniProt Q5VW32) 0.068
BBC3 (UniProt Q9BXH1) 0.053
BCL2L12 (UniProt Q9HB09) 0.093
BCAT2 (UniProt O15382) 0.016
BCKDHB (UniProt P21953) -0.011
BCAS2 (UniProt O75934) 0.014
BOP1 (UniProt Q14137) 0.038
BAK1 (UniProt Q16611) 0.008
BID isoform 2 (UniProt P55957) -0.008
BAG2 (UniProt O95816) 0.112
BCAP29 isoform 2 (UniProt Q9UHQ4) 0.031
B3GNTL1 (UniProt Q67FW5) 0.023

Reprinted at random: 2 entries already listed.
log2 fold change, inactive:
BRIX1 (UniProt Q8TDN6) 0.191
BCAP29 isoform 2 (UniProt Q9UHQ4) 0.031
